In patent US20260297127A1, “REVERSIBLE SURFACTANT AND MULTIFUNCTIONAL DRUG DELIVERY SYSTEMS BASED THEREON” (Yissum Research Development Company of the Hebrew …, priority 2023, published 2026):

Assay: Emulsion functionalization with hexahistidine-tagged compounds (fluorescence)
Settings: fluorescence microscopy; for localization on the emulsion: pH 7.5

| Compound | droplet coating fluorescence (H6-Rh added) | localization on the emulsion | state after pH is lowered (lowered / acidic pH) |
| --- | --- | --- | --- |
| CCN(CC)c1ccc2c(-c3ccccc3C(=O)N[C@@H](Cc3c[nH]cn3)C(=O)N[C@@H](Cc3c[nH]cn3)C(=O)N[C@@H](Cc3c[nH]cn3)C(=O)N[C@@H](Cc3c[nH]cn3)C(=O)N[C@@H](Cc3c[nH]cn3)C(=O)N[C@@H](Cc3c[nH]cn3)C(N)=O)c3ccc(=[N+](CC)CC)cc-3oc2c1 [H6—Rh, NH2-(His)6-Rhodamine B] | stronger fluorescence at the circumference of the droplets |  |  |
| CCN(CC)c1ccc2nc3c4ccccc4c(=O)cc-3oc2c1 [Nile red] |  | inside the oil droplets |  |
| NH2-(His)6-FITC [H6-FITC] |  | encircling the droplets | formed aggregates |
